# Patent US20260183402A1, “NUTRITIONAL COMPOSITION” (priority 2010, published 2026)
# Test: Taste/bitterness of ketone bodies
# Conditions: human taste, in words
compound,measurement,value
CC(O)CC(=O)OCC(COC(=O)CC(C)O)OC(=O)CC(C)O (stereo not drawn),taste,bitterness
butandiol triolide diester,taste,bitter taste
CCOC(=O)CC(C)O (stereo not drawn) [ethanol ester of beta-hydroxybutyrate],taste,low bitter or tasteless
